At least one structure is not confirmed: it was looked up by name or label, or the drawing left a doubt. Some of these results come from one statement about several compounds together.
How the values were obtained:
isomerase = target: T1, isomerase (Bos taurus, UniProt Q28175); assay: isomerase reaction: 11-cis-retinol production by RPE microsomes from all-trans-retinol; assay type: biochemical, bovine; settings: in vitro
T1 construct: Purified RPE microsomes were the source of the enzymes; from tissue; host or cells: bovine retinal pigment epithelium microsomes
T1 sequence (Q28175 2-533 limits assumed): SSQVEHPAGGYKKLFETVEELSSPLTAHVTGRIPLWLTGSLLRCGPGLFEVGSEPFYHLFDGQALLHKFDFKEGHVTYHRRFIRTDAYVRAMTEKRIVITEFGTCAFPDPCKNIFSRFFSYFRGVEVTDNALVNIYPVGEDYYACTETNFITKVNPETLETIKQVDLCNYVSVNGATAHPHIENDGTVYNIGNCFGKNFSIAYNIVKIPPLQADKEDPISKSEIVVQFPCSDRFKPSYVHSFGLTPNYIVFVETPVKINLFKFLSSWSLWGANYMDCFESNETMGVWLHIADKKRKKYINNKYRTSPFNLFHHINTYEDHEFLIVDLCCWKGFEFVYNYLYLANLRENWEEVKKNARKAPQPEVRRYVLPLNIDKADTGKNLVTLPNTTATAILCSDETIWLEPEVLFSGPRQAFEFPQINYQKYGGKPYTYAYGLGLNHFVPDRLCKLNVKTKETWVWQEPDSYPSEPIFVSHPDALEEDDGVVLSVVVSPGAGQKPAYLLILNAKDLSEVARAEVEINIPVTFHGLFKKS
Protocol: To test if 11-cis-retinylamine (11-cis Ret-NH2) affects isomerization and esterification, an in vitro assay was employed. In this assay both of the all-trans-retinyl esters formed in the reaction catalyzed by LRAT and 11-cis-retinol production by isomerase were measured (6). Purified RPE microsomes were the source of the enzymes, and all-trans-retinol was the substrate. […] Inhibition of isomerization by Ret-NH2 is not due to binding of CRALBP or competition with 11-cis-retinol for binding to CRALBP. […] An increased concentration of all-trans-retinol lowered the level of inhibition, as illustrated in FIG. 2B. […] Dixon's and Lineweaver-Burk plots in the standard assay conditions yielded Ki=0.1 μM for Ret-NH2 when all-trans-retinol (KM=0.3 μM) was assumed to be a substrate. […] This estimated value reflects the very potent nature of the inhibition by 11-cis-Ret-NH2.
Materials—Fresh bovine eyes were obtained from a local slaughterhouse (Schenk Packing Co., Inc., Stanwood, Wash.). Preparation of bovine RPE microsomes was performed according to previously described methods (Stecher et al., J Biol Chem 274:8577-85, 1999). […]
Reaction conditions for isomerase and LRAT reaction—The isomerase reaction was performed essentially as described previously (Stecher et al., J Biol Chem 274:8577-85, 1999). […] The average values were used and the standard deviations were calculated.

RPE protein(s) = assay: gel filtration chromatography of DHPC-solubilized RPE microsome proteins with retinoid; assay type: binding, bovine; settings: Superdex 200, native RPE extract; proteins elute in fractions 18-60
Protocol: The specificity of Ret-NH2 was further tested by biochemical assays. […] When the RPE microsomes were solubilized with DHPC, the isomerase activity decreased only slightly. Then [^3H]-Ret-NH2 was added to the RPE extract and loaded on a gel filtration column. Proteins were fractionated and eluted between fractions 18 and 60 (FIG. 3A), while the radioactivity was eluted in fractions 36-38. RPE65 was identified by immunoblotting in fractions 23-34 (FIG. 3B). The most abundant proteins in this fraction were identified by mass spectrometry and include glucose phosphate isomerase, D-glyceraldehyde-3-phosphate dehydrogenase, phosphoglycerate mutase, triose phosphate isomerase, enolase, annexin V, calbindin 2, and LRAT. Identification of less abundant proteins is in progress.
RPE microsomes were solubilized with 10 mM DHPC, incubated with 11,12-di[^3H]-all-trans-Ret-NH2 (1 μM), and loaded on a Superdex 200 column equilibrated with Tris/HCl buffer, pH 7.5, containing 4 mM DHPC. Proteins were eluted with a constant flow rate of 0.4 ml/min. The protein and radioactivity levels of 0.4 ml fractions were examined by SDS-PAGE and scintillation counting (A), and immunoblot with anti-RPE65 and anti-LRAT antibodies (B). The star indicates the fraction associated with maximum radioactivity.

SMILES: CC1=C(/C=C/C(C)=C/C=C/C(C)=C/C(=O)O)C(C)(C)CCC1 [retinoic acid, reference compound]
- inhibition of isomerization (in words) (isomerase): weakly inhibit the isomerization reaction
- gel filtration elution position (fractions) (RPE protein(s)): eluted either in the void volume or with low molecular weight compounds

SMILES: [3H]C(C=C(C)C=CC1=C(C)CCCC1(C)C)=C([3H])C(C)=CCN [[^3H]-Ret-NH2, 11,12-di[^3H]-all-trans-Ret-NH2]
- gel filtration elution position (fractions) (RPE protein(s)): 36-38
